PubChem BioAssay AID1259425 – University of Nebraska Medical Center – 2018

- Assay: 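Compare each knockdown with KSR1 silencing using changes in marker transcripts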 (primary screen)
- Cells: HCT116 human colon cancer cells
- Knock-down reagent: siRNA pool against human genes, 50 nM siRNA
- Read-out: 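mRNA of six signature genes measured together by branched-DNA assay after 50 nM siRNA pool, blank removed, divided by geometric mean of two housekeeping genes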
- Direction: BNIP3L mRNA: higher = more BNIP3L transcript after knockdown; NDRG1 mRNA: higher = more NDRG1 transcript after knockdown
In all, the deposit lists about 14,000 reagents; shown is an unselected part. Further read-outs or replicates are left out here. Not stated in the record: the time to read-out.

KCNAB1 (GeneID 7881) → BNIP3L mRNA, set 1 = 0.106; NDRG1 mRNA, set 1 = 0.192
TBX20 (GeneID 57057) → BNIP3L mRNA, set 1 = 0.0823; NDRG1 mRNA, set 1 = 0.194
BRF1 (GeneID 2972) → BNIP3L mRNA, set 1 = 0.0834; NDRG1 mRNA, set 1 = 0.352
SLC6A16 (GeneID 28968) → BNIP3L mRNA, set 1 = 0.105; NDRG1 mRNA, set 1 = 0.269
ELAVL4 (GeneID 1996) → BNIP3L mRNA, set 1 = 0.178; NDRG1 mRNA, set 1 = 0.582
PTPN5 (GeneID 84867) → BNIP3L mRNA, set 1 = 0.143; NDRG1 mRNA, set 1 = 0.127
TTF1 (GeneID 7270) → BNIP3L mRNA, set 1 = 0.093; NDRG1 mRNA, set 1 = 0.296
DNAI2 (GeneID 64446) → BNIP3L mRNA, set 1 = 0.0757; NDRG1 mRNA, set 1 = 0.248
RAB3D (GeneID 9545) → BNIP3L mRNA, set 1 = 0.0958; NDRG1 mRNA, set 1 = 0.0739
XRCC5 (GeneID 7520) → BNIP3L mRNA, set 1 = 0.19; NDRG1 mRNA, set 1 = 0.237
CYBRD1 (GeneID 79901) → BNIP3L mRNA, set 1 = 0.0545; NDRG1 mRNA, set 1 = 0.203
HOXA2 (GeneID 3199) → BNIP3L mRNA, set 1 = 0.0753; NDRG1 mRNA, set 1 = 0.206

2 entries from above, arranged by “NDRG1 mRNA, set 1”, descending:
XRCC5 (GeneID 7520) → BNIP3L mRNA, set 1 = 0.19; NDRG1 mRNA, set 1 = 0.237
CYBRD1 (GeneID 79901) → BNIP3L mRNA, set 1 = 0.0545; NDRG1 mRNA, set 1 = 0.203
